Experimental data as given in PMC7085228.
No constants are given. Whether binding was seen depends on the method and setting. Binding seen in cells or lysates may run through a third protein. Some results given as binding are weak or reduced against the parent protein; the word gives no strength.

Chains of the proteins cited; added tags and fusions are not shown. Residues count along the entry.
UniProt Q9QUK6, residues 26-835: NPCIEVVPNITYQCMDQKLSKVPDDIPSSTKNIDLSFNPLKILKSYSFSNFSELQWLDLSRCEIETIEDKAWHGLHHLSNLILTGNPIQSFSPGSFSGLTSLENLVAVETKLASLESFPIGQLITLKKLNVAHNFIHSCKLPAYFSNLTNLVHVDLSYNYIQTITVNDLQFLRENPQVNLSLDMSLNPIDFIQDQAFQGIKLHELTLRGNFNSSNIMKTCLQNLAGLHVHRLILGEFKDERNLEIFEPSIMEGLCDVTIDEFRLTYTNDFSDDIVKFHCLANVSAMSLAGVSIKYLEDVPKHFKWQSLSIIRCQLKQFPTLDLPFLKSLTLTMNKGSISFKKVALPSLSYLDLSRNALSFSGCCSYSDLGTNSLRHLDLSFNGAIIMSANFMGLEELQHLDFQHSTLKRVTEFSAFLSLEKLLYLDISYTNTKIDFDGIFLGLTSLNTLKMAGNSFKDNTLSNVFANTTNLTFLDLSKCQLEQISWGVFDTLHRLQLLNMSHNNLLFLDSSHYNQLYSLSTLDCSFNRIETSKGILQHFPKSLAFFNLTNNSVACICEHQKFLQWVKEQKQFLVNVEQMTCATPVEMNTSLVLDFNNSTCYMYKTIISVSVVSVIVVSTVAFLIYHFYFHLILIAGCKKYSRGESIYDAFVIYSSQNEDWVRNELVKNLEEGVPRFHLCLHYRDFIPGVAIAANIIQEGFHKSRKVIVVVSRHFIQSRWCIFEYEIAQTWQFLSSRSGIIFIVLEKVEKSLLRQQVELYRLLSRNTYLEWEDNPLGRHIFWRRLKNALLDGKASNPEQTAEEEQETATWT

Columns and labels:
[1] = molecular target: Toll-like receptor 4 (mouse (endogenous in CT26.WT)) (UniProt Q9QUK6); experiment: co-IP; lysates of CT26.WT cells, LPS-stimulated (15 min), with or without 1 h pretreatment with L6H21 (5 or 10 uM) or MD2 neutralizing antibody (1 ug/mL); anti-TLR4 antibody at 4°C overnight, protein A+G agarose 4 h at 4°C; immunoblot for MD2
[2] = molecular target: Toll-like receptor 4 (mouse (endogenous in CT26.WT)) (UniProt Q9QUK6); experiment: co-IP; CT26.WT cells transfected with the MD2 overexpression plasmid, treated with L6H21 for 1 h and then LPS; shown in Supplementary Figure S4A-B; method taken from the paper's only co-immunoprecipitation protocol

Row | binding [1] | binding [2] | Binder
1 | binds | – | Myeloid differentiation protein 2 (protein, UniProt Q9JHF9 19-160) EKQQWFCNSSDAIISYSYCDHLKFPISISSEPCIRLRGTNGFVHVEFIPRGNLKYLYFNLFISVNSIELPKRKEVLCHGHDDDYSFCRALKGETVNTSIPFSFEGILFPKGHYRCVAEAIAGDTEEKLFCLNFTIIHRRDVN
2 | – | binds | MD2 expressed from the recombinant plasmid vector MG51098-NH (protein, UniProt Q9JHF9 19-160) EKQQWFCNSSDAIISYSYCDHLKFPISISSEPCIRLRGTNGFVHVEFIPRGNLKYLYFNLFISVNSIELPKRKEVLCHGHDDDYSFCRALKGETVNTSIPFSFEGILFPKGHYRCVAEAIAGDTEEKLFCLNFTIIHRRDVN
